Measured values reported in patent publication US10905757B2, “Cross-reactive T cell epitopes of HIV, SIV, and FIV for vaccines in humans and cats” (priority 2012, dated 2021).
Part of at least one peptide drawing is inferred or uncertain, most often the ends. Marks after values point to notes of the source that are not given here. Some entries repeat one wording, which the source may state once for all of them. Some results were stated once for a whole list of compounds, not compound by compound. Ends that are not written are not given here.

How the values were obtained:
[1] = system: CD3+CD8+ T cells from HIV+ subjects; test: CFSE-proliferation, CD3+CD8+ T cells from HIV+ subjects; format: cell-based, human; set-up: key to CD8^+ T-cell proliferation (8P): positive (+); negative (−) response; inhibitory (↓); not done (n); conditions: for (magnitude) CD8 Proliferation: average positive values; for (magnitude) CD8 Proliferation / Responder Frequency in %, CD8 Proliferation: responders to Fp9 or Fp14 peptide pools; for CD8^+ T-cell Responder Frequency: responders/tested; for CD8^+ T-cell proliferation (8P): HIV^+ subjects compared to HIV^− control group
Protocol: (§1) 2×10^5-5×10^5 CFSE labeled PBMCs were incubated with 15-20 μg of peptides in 600 μL of RPMI media with 10% FBS for 5 days at 37° C. (5% CO2). After harvesting, they were labeled with allophycocyanin (APC), APC-H7, and Pacific Blue labeled monoclonal antibodies (MAb) to human CD3, CD4, and CD8, respectively and analyzed for T-cell proliferation by flow cytometry using BD LSRII (BD Biosciences). The proliferating CD4^+ or CD8^+ T cell populations were defined from the CD3^+ cell population as either CD3^+CD8^+ or CD3^+CD4^+T cells (mutually exclusive) with low CFSE (CFSE^low) staining.
(§2) Flow cytometry (FACS) for carboxyfluoresein diacetate succinimide ester (CFSE)-proliferation and intracellular cytotoxin staining (ICS). The CFSE-proliferation analysis was performed on PBMC according to the manufacturer's protocol (Invitrogen, Carlsbad, Calif.) and processed as previously described (Lichterfeld et al. (2004)). Modifications consisted of using 2.0-5.0×10^5 CFSE-labeled cells stimulated for 5 days (37° C., 5% CO^2) with 30 μg/well of total peptides in a pool (15 μg/well for individual peptide, Table 10) or 5 μg/mL PHA in AIM V medium containing 25 μg/mL of gentamycin and 10% heat-inactivated human serum. Subsequently these cells were harvested and labeled with the LIVE/DEAD fixable yellow dye (Invitrogen) and then treated 5 min with anti-CD16/CD32 antibody (Biolegend, San Diego, Calif.) for blocking non-specific binding before phenotype-specific antibodies. The following antibodies were used for the CFSE-proliferation analysis: anti-CD4 APC, anti-CD3 APC-H7, and anti-CD8 Pacific Blue (BD Biosciences, San Jose, Calif.).
(§3) In both analyses, 1.0-2.0×10^4 cells were fixed in phosphate-buffered saline (PBS) containing 2% paraformaldehyde and analyzed on BD LSRII using […] Software (BD Biosciences), with a positive threshold of 3% CFSE^low for CFSE-proliferation and 1% T cells expressing cytotoxin for ICS. The final value for each subject was derived after subtraction of the subject's medium control and the average value of peptide-stimulated cells from uninfected control subjects.
(§4) Flow cytometry (FACS) for measuring CFSE-proliferation and intracellular cytokine staining (ICS). Carboxyfluorescein diacetate succinimide ester (CFSE)-proliferation analysis was performed according to the manufacturer's protocol (Invitrogen) and processed as previously described (Lichterfeld et al. 2004) using the following modification: 2.5-5.0×10^5 CFSE-labeled PBMC stimulated for 4-5 days (37° C., 5% CO2) with 15-30 μg of peptides in culture media (AIM V medium, 25 μg/mL gentamycin, and 10% heat-inactivated fetal bovine serum). The ICS analysis was performed as previously described (Horton et al. 2007; Pattacini et al. 2012).
(§5) The antibodies used for the proliferation analysis consisted of anti-CD4 allophycocyanin (APC) anti-CD3 APC-H7, and anti-CD8 Pacific Blue, and those for ICS were anti-CD3 APC-H7, anti-CD4 BD Horizon V450, anti-CD8 FITC, anti-granzyme B (GrzB) Alexa 700, anti-granzyme A (GrzA) PE (BD Biosciences, Cat #555349, 560176, 558207, 560345, 555366, 560213, 558904), and anti-perforin PerCP (Abcam, Cat #ab86319). Both analyses were performed with BD LSRII and […]™ Software (BD Biosciences), using a positive threshold of >1% CFSE^low for CFSE-proliferation except for ICS studies with threshold of >0.1% T cells expressing cytotoxin. The final value for each subject was derived after subtracting the result of each HIV^+ subject with the media control followed by subtraction with the average response of the media-control subtracted HIV^− subjects.

PBMC from HIV− subjects = test: IFNγ ELISpot, PBMC from HIV− (seronegative control) subjects; format: cell-based, human; conditions: p24 study
PBMC from HIV+ subjects = test: IFNγ ELISpot, PBMC from HIV+ subjects; format: cell-based, human; set-up: key to IFNγ (IFN) response: positive (+); negative (−) response; inhibitory (↓); not done (n); conditions: for (magnitude) IFNγ: average positive values; for (magnitude) IFNγ / Responder Frequency in %, IFNγ: responders to Fp9 or Fp14 peptide pools; for IFNγ (IFN) response: HIV^+ subjects compared to HIV^− control group
Protocol: 1.0×10^5-2.0×10^5 PBMCs were stimulated with peptides (15 μg peptide/well) in ELISpot plates for 18 hours in AIMS V medium (at 10% normal human serum). The spots were counted with an ELISpot reader and adjusted to spot forming units (SFU) per 10^6 cells.
Positive reactivity was defined at ≥70 SFU/10^6 cells after subtracting the background derived from non-specific peptide control or media control, and the average of 3 HIV-1 negative controls (<30 SFU/10^6 cells).
ELISpot assays. Enzyme-linked immunosorbent spot assays (ELISpot) for IFNγ (R&D Systems, Minneapolis, Minn.) were performed with AIM V medium containing 5% heat-inactivated (56° C., 30 min) human serum as previously described (Abbott et al. (2012)). The PBMC from HIV+ subjects were stimulated with either peptide pool (4-5 consecutive peptides per pool at 5 μg per peptide) or individual peptide (15 μg/well). The peptides were 11-16 aa in length with 8-10 aa overlap. The results were analyzed with an ELISpot reader (MVS Pacific LLC, Minneapolis, Minn.) and adjusted to spot forming units (SFU) per 10^6 cells, after subtraction of the average medium control for each subject. The PBMC from HIV+ subjects were stimulated with T-cell mitogen, phytohemaglutinin A (PHA, 5 μg/mL), as positive control. At a positive threshold of 70 SFU, HIV− subjects had no substantial IFNγ responses (>50 SFU) to HIV and FIV peptide pools.
ELISpot assays. Human enzyme-linked immunosorbent spot assays (ELISpot) (R&D Systems, Cat #XEL285) which measure IFNγ production were performed (Abbott et al. 2011). The positive threshold for human IFNγ responses was >50 spot forming units (SFU)/10^6 cells. The final value for each subject was derived after subtracting the result of each HIV^+ subject with the media control followed by subtraction with the average response of the HIV^− subjects which was rarely more than 10 SFU.

[2] = system: CD3+CD4+ T cells from HIV+ subjects; test: CFSE-proliferation, CD3+CD4+ T cells from HIV+ subjects; format: cell-based, human; set-up: key to CD4^− T-cell proliferation (4P): positive (+); negative (−) response; inhibitory (↓); not done (n); conditions: for (magnitude) CD4 Proliferation: average positive values; for (magnitude) CD4 Proliferation / Responder Frequency in %, CD4 Proliferation: responders to Fp9 or Fp14 peptide pools; for CD4^+ T-cell Responder Frequency: responders/tested; for CD4^− T-cell proliferation (4P): HIV^+ subjects compared to HIV^− control group
Protocol: as §1, §2, §3, §4, §5

[3] = system: T cells from HIV− subjects; test: CFSE-proliferation, CD8+ / CD4+ T cells from HIV− control subjects; format: cell-based, human; set-up: key to HIV^− control group (NC): positive (+); negative (−) response; inhibitory (↓); not done (n); conditions: response in HIV^− control group
Protocol: as §2, §3, §4, §5

[4] = system: PBMC from FIV-vaccinated cats; test: IFNγ ELISpot, PBMC from FIV-vaccinated cats (prototype vaccine, or prime plus MAP boosts); format: cell-based, cat
Source text: Peptide Fp4-3 (left), peptide Fp14-1 (middle) and MAP1 [right] were culture stimulants. IL2 and IFNγ ELISpot results of >50 spot forming units (SFU/10^6 PBMC) and CFSE-proliferation of >2 are considered positive (bolded). The prime-boost vaccination induced IL2 responses in 3 of 4 cats and IFNγ response in one. Larger responses were induced by MAP1 than individual peptides in culture.

[5] = small 9-13mer peptides, yr 4, responders to Fp9 or Fp14 pool via both proliferation and IFNγ
[6] = large 13-15mer peptides, yr 2, responders to Fp9 or Fp14 pool via CFSE proliferation

Row | Sequence | (magnitude) CD8 Proliferation [1] | Responder Frequency in %, CD8 Proliferation [1] | CD8^+ T-cell Responder Frequency [1, 5] | CD8^+ T-cell Responder Frequency (%) [1, 5] | IFNγ response of PBMC from HIV− subjects (PBMC from HIV− subjects) | (magnitude) IFNγ (PBMC from HIV+ subjects) | Responder Frequency in %, IFNγ (PBMC from HIV+ subjects) | (magnitude) CD4 Proliferation [2] | Responder Frequency in %, CD4 Proliferation [2] | CD4^+ T-cell Responder Frequency [2, 5] | CD4^+ T-cell Responder Frequency (%) [2, 5] | CD8^+ T-cell proliferation (8P) [1] | HIV^− control group (NC) [3] | IFNγ (IFN) response (PBMC from HIV+ subjects) | CD4^− T-cell proliferation (4P) [2] | also measured
1 | AEVKLYLKQSLSI [Fp14-3d] | high (high when >30 CSFE) | 100% | 10/10 | (100) ^d % | < 10 SFU | low (low when the frequency of response is <15% CFSE or <125 SFU) | 40% | low (The average positive values are considered low when the frequency of response is <15% CFSE) | 70% | 7/10 | (70) ^d % |  |  |  |  | CD8+ T-cell proliferation response of HIV+ subjects (in words) ([1]; p24 pools and peptides): high; IFNγ response of HIV+ subjects (in words) (PBMC from HIV+ subjects; p24 pools and peptides): low; CD4+ T-cell proliferation response of HIV+ subjects (in words) [2]: high
2 | ARMQCRAWY [Fp9-3d] | low (The average positive values are considered low when the frequency of response is <15% CFSE) | 56% | 6/9 | (67) ^d % |  | none | 0% | low (The average positive values are considered low when the frequency of response is <15% CFSE) | 33% | 3/9 | (33) ^d % |  |  |  |  | magnitude of CD8+ T-cell proliferation ([1]; Fp9 responders, epitope mapping): < 13 % CFSE^low
3 | ASQEVKNWMTETLLV [Hp15-2] |  |  |  |  |  |  |  |  |  |  |  | − | − | + | − | 
4 | EQNTAEVKLYLKQSL [Fp14-2] |  |  |  |  |  |  |  |  |  |  |  | + | − | − | − | CD8^+ T-cell Responder Frequency (%) [1, 6]: (50) %; CD8^+ T-cell Responder Frequency [1, 6]: 3/6; IFNγ responses in PBMC from FIV-vaccinated cats (in words) [4]: consistently low levels; CD4^+ T-cell Responder Frequency (%) [2, 6]: (0) %; CD4^+ T-cell Responder Frequency [2, 6]: 0/6
5 | KLYLKQSLSI [Fp14-3/4f] |  |  |  |  | < 10 SFU |  |  |  |  |  |  |  |  |  |  | 
